PubChem BioAssay AID504786 | Drosophila RNAi Screening Center | 2011

Assay: 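Positive regulators of HIF-driven reporter output in Drosophila cells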 (primary screen)
Cell system: Drosophila S2 cells with a stable HIF luciferase reporter
Reagent: long dsRNA against Drosophila genes, about 0.2 µg dsRNA per well of a 384-well plate
Time to read-out: three days of knock-down, then 20 h of DFO before reading
Conditions: desferrioxamine (DFO) at 100 µM, an iron chelator that mimics hypoxia, for 20 h
Detection: 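Firefly luciferase driven by the mouse ldh-a hypoxia-response element, measured after 20 h of 100 µM DFO; z-scores per plate, higher means more signal lost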
Scale: z-score: higher = stronger loss of HIF reporter signal
In all, the deposit lists about 21,000 reagents; this is an unselected part of those that have a named target and a result. 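Primary screen; positive scores mean lost reporter signal, so the sign may be inverted from the usual convention.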 The numbers tell different reagents against one gene apart. Names joined by + are all predicted targets of the reagent.

What did the screen give for CG12460 (retired record) (GeneID 3355078)?
z-score, replicate 1: -0.4; z-score, replicate 2: -1.2

Which result is listed for AOX3 (GeneID 41896)?
z-score, replicate 1: -0.4; z-score, replicate 2: -0.6

What did the screen give for Polr3F (GeneID 42619)?
z-score, replicate 1: 1.6; z-score, replicate 2: 0.8

For Nep6 (GeneID 32234), how do the results read?
z-score, replicate 1: 0.8; z-score, replicate 2: 0.8

For CG11790 (GeneID 42999), what was measured?
z-score, replicate 1: -0.2; z-score, replicate 2: 0.1

For CG32147 (GeneID 251690), what does the deposit list?
z-score, replicate 1: -0.6; z-score, replicate 2: -0.1

With CG7275 (GeneID 39669), what does the deposit list?
z-score, replicate 1: 0.1; z-score, replicate 2: 1.6

What did the screen give for lcs (GeneID 33120)?
z-score, replicate 1: -0.3; z-score, replicate 2: -0.7

What is on record for FucTB (GeneID 34260)?
z-score, replicate 1: -0.2; z-score, replicate 2: -0.2

With CG31729 (GeneID 34736) #1, what does the deposit list?
z-score, replicate 1: -0.3; z-score, replicate 2: -0.6

What did the screen give for CG31729 (GeneID 34736) #2?
z-score, replicate 1: 0.1; z-score, replicate 2: -0.3

How did the screen score CG18568 (GeneID 36549)?
z-score, replicate 1: -0.2; z-score, replicate 2: -0.2

With CG3793 (GeneID 34928), what does the deposit list?
z-score, replicate 1: -0.5; z-score, replicate 2: -0.6

Which result is listed for CG1983 (GeneID 43588)?
z-score, replicate 1: -0.1; z-score, replicate 2: 0.8

With FoxP (GeneID 41182), what was measured?
z-score, replicate 1: -0.2; z-score, replicate 2: -0.5

For Faa (GeneID 45577), how do the results read?
z-score, replicate 1: -0.3; z-score, replicate 2: -0.3

Just “z-score, replicate 2”, for 4 of the entries above:
CG32147 (GeneID 251690)	-0.1
CG7275 (GeneID 39669)	1.6
lcs (GeneID 33120)	-0.7
FucTB (GeneID 34260)	-0.2

The listing continues.
With CG10943 (GeneID 39462), what was measured?
z-score, replicate 1: -0.2; z-score, replicate 2: -0.4

For Odj (GeneID 42145), what does the deposit list?
z-score, replicate 1: -0.1; z-score, replicate 2: -0.2

How did the screen score CG3330 (GeneID 43296)?
z-score, replicate 1: -0.3; z-score, replicate 2: -0.2

For Arglu1 (GeneID 34320), what does the deposit list?
z-score, replicate 1: -0.1; z-score, replicate 2: 0.5

How did the screen score Octalpha2R (GeneID 42258) #1?
z-score, replicate 1: -0.4; z-score, replicate 2: -0.1

What is on record for Octalpha2R (GeneID 42258) #2?
z-score, replicate 1: -0.7; z-score, replicate 2: 0.2

With CG42323 (GeneID 32825), how do the results read?
z-score, replicate 1: -0.3; z-score, replicate 2: -0.3

With CG42304 + Snup #1, what was measured?
z-score, replicate 1: 0.2; z-score, replicate 2: 1

How did the screen score CG42304 + Snup #2?
z-score, replicate 1: -0.4; z-score, replicate 2: -0.5

With Ublcp1 (GeneID 42726), what was measured?
z-score, replicate 1: -0.1; z-score, replicate 2: -0.8

What did the screen give for Ir56c (GeneID 37251)?
z-score, replicate 1: -0.2; z-score, replicate 2: -0.4
